Reference: PubChem BioAssay AID1224829 (NIAID, 2016)

Purpose: 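Genes needed for LPS-driven NF-kappaB p65 nuclear entry in mouse macrophages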 (follow-up of hits)
Cells: mouse RAW264.7 G9 macrophage reporter cells
Reagents: single siRNA against mouse genes, 100 nM
Time to read-out: 2 days of siRNA knock-down, then 40 min of LPS before fixing
Treatment: LPS (Salmonella minnesota R595) at 10 ng/ml
Read-out: 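Imaging of GFP-p65 after 40 min of LPS; nuclear over perinuclear ring intensity ratio, scaled to plate median and non-targeting control wells, given as z-score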
Scale: p65 translocation z-score and gene median z-score, per vendor: higher = more nuclear NF-kappaB p65 after LPS
Rule for the call: 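An siRNA is called active when the mean z-score of its two replicates is above 2 or below -2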
Calls: active = changed p65 translocation (either direction); inactive = no clear change
In all, the deposit lists about 3,800 reagents; shown is an unselected part. 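Calls cover raised and lowered translocation; gene median uses one vendor's three siRNAs; qiagen siRNAs acted more weakly than ambion siRNAs.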 A number with no mark means an inactive call. Reagents against one gene are numbered here.

| gene symbol | reagent no. | siRNA vendor or control pool | p65 translocation z-score, replicate mean | p65 translocation z-score, replicate 1 | p65 translocation z-score, replicate 2 | gene median z-score, per vendor |
| --- | --- | --- | --- | --- | --- | --- |
| Ca5a (carbonic anhydrase 5A) | 1 | ambion single siRNA | -2.61 (active) | -1.61 | -3.61 | -2.02 |
| Ca5a (carbonic anhydrase 5A) | 2 | ambion single siRNA | -2.17 (active) | -2.31 | -2.02 | -2.02 |
| Ca5a (carbonic anhydrase 5A) | 3 | ambion single siRNA | -0.397 | -0.397 | – | -2.02 |
| Ca5a (carbonic anhydrase 5A) | 4 | qiagen single siRNA | 2.33 (active) | 1.6 | 3.05 | 0.285 |
| Ca5a (carbonic anhydrase 5A) | 5 | qiagen single siRNA | -1.73 | -0.273 | -3.19 | 0.285 |
| Ca5a (carbonic anhydrase 5A) | 6 | qiagen single siRNA | 0.285 | -0.202 | 0.773 | 0.285 |
| Lyn (Lyn proto-oncogene, Src family tyrosine kinase) | 1 | ambion single siRNA | -2.58 (active) | -3.27 | -1.88 | -0.791 |
| Lyn (Lyn proto-oncogene, Src family tyrosine kinase) | 2 | ambion single siRNA | 0.862 | 1.53 | 0.198 | -0.791 |
| Lyn (Lyn proto-oncogene, Src family tyrosine kinase) | 3 | ambion single siRNA | -0.791 | -1.02 | -0.557 | -0.791 |
| Lyn (Lyn proto-oncogene, Src family tyrosine kinase) | 4 | qiagen single siRNA | -1.45 | -1.27 | -1.63 | -1.45 |
| Lyn (Lyn proto-oncogene, Src family tyrosine kinase) | 5 | qiagen single siRNA | 0.601 | -0.0375 | 1.24 | -1.45 |
| Lyn (Lyn proto-oncogene, Src family tyrosine kinase) | 6 | qiagen single siRNA | -3.41 (active) | -2.18 | -4.63 | -1.45 |
| Nfe2l2 (nuclear factor, erythroid derived 2, like 2) | 1 | ambion single siRNA | -0.374 | -0.374 | – | -0.631 |
| Nfe2l2 (nuclear factor, erythroid derived 2, like 2) | 2 | ambion single siRNA | -0.65 | -0.65 | – | -0.631 |
| Nfe2l2 (nuclear factor, erythroid derived 2, like 2) | 3 | ambion single siRNA | -0.898 | -0.611 | -1.18 | -0.631 |
| Nfe2l2 (nuclear factor, erythroid derived 2, like 2) | 4 | qiagen single siRNA | -3.11 (active) | -2 | -4.23 | -2.41 |
| Nfe2l2 (nuclear factor, erythroid derived 2, like 2) | 5 | qiagen single siRNA | -1.43 | -2.35 | -0.506 | -2.41 |
| Nfe2l2 (nuclear factor, erythroid derived 2, like 2) | 6 | qiagen single siRNA | -3.77 (active) | -2.46 | -5.07 | -2.41 |
| Brd4 (bromodomain containing 4) | 1 | ambion single siRNA | -1.83 | -1.72 | -1.95 | -1.95 |
| Brd4 (bromodomain containing 4) | 2 | ambion single siRNA | -1.55 | -2.8 | -0.306 | -1.95 |
| Brd4 (bromodomain containing 4) | 3 | ambion single siRNA | -4.57 (active) | -4.57 | – | -1.95 |
| Brd4 (bromodomain containing 4) | 4 | qiagen single siRNA | -4.58 (active) | -3.69 | -5.46 | -4.88 |
| Brd4 (bromodomain containing 4) | 5 | qiagen single siRNA | -4.38 (active) | -3.02 | -5.75 | -4.88 |
| Brd4 (bromodomain containing 4) | 6 | qiagen single siRNA | -5.48 (active) | -4.3 | -6.65 | -4.88 |
| Aldh1a2 (aldehyde dehydrogenase family 1, subfamily A2) | 1 | ambion single siRNA | -1.82 | -1.95 | -1.68 | -3.21 |
| Aldh1a2 (aldehyde dehydrogenase family 1, subfamily A2) | 2 | ambion single siRNA | -3.88 (active) | -4.14 | -3.61 | -3.21 |
| Aldh1a2 (aldehyde dehydrogenase family 1, subfamily A2) | 3 | ambion single siRNA | -3.85 (active) | -4.9 | -2.8 | -3.21 |
| Aldh1a2 (aldehyde dehydrogenase family 1, subfamily A2) | 4 | qiagen single siRNA | 0.25 | 0.586 | -0.0849 | -0.349 |
| Aldh1a2 (aldehyde dehydrogenase family 1, subfamily A2) | 5 | qiagen single siRNA | -0.54 | -0.566 | -0.513 | -0.349 |
| Aldh1a2 (aldehyde dehydrogenase family 1, subfamily A2) | 6 | qiagen single siRNA | -0.554 | -0.923 | -0.184 | -0.349 |
| Tec (tec protein tyrosine kinase) | 1 | ambion single siRNA | -5.71 (active) | -5.71 | -5.72 | -4.47 |
| Tec (tec protein tyrosine kinase) | 2 | ambion single siRNA | -1.91 | -0.199 | -3.61 | -4.47 |
| Tec (tec protein tyrosine kinase) | 3 | ambion single siRNA | -3.91 (active) | -2.5 | -5.33 | -4.47 |
| Tec (tec protein tyrosine kinase) | 4 | qiagen single siRNA | -0.225 | -0.352 | -0.0986 | 0.00739 |
| Tec (tec protein tyrosine kinase) | 5 | qiagen single siRNA | 1.12 | 0.113 | 2.14 | 0.00739 |
| Tec (tec protein tyrosine kinase) | 6 | qiagen single siRNA | -0.0677 | 1.09 | -1.23 | 0.00739 |

The list goes on (4 carried over from the part before).
| gene symbol | reagent no. | siRNA vendor or control pool | p65 translocation z-score, replicate mean | p65 translocation z-score, replicate 1 | p65 translocation z-score, replicate 2 | gene median z-score, per vendor |
| --- | --- | --- | --- | --- | --- | --- |
| Tec (tec protein tyrosine kinase) | 3 | ambion single siRNA | -3.91 (active) | -2.5 | -5.33 | -4.47 |
| Tec (tec protein tyrosine kinase) | 4 | qiagen single siRNA | -0.225 | -0.352 | -0.0986 | 0.00739 |
| Tec (tec protein tyrosine kinase) | 5 | qiagen single siRNA | 1.12 | 0.113 | 2.14 | 0.00739 |
| Tec (tec protein tyrosine kinase) | 6 | qiagen single siRNA | -0.0677 | 1.09 | -1.23 | 0.00739 |
| Mesp2 (mesoderm posterior 2) | 1 | ambion single siRNA | -2.11 (active) | -2.17 | -2.04 | -2.1 |
| Mesp2 (mesoderm posterior 2) | 2 | ambion single siRNA | -1.54 | -1.04 | -2.04 | -2.1 |
| Mesp2 (mesoderm posterior 2) | 3 | ambion single siRNA | -2.26 (active) | -2.36 | -2.17 | -2.1 |
| Mesp2 (mesoderm posterior 2) | 4 | qiagen single siRNA | 0.0782 | -1.58 | 1.74 | -1.64 |
| Mesp2 (mesoderm posterior 2) | 5 | qiagen single siRNA | – | – | – | -1.64 |
| Mesp2 (mesoderm posterior 2) | 6 | qiagen single siRNA | -2.48 (active) | -3.27 | -1.69 | -1.64 |
| Cd300c (CD300C molecule) | 1 | ambion single siRNA | -5.27 (active) | -5.63 | -4.92 | 0.344 |
| Cd300c (CD300C molecule) | 2 | ambion single siRNA | 1.42 | 1.57 | 1.27 | 0.344 |
| Cd300c (CD300C molecule) | 3 | ambion single siRNA | 0.344 | -0.0835 | 0.771 | 0.344 |
| Cd300c (CD300C molecule) | 4 | qiagen single siRNA | -3.64 (active) | -4.46 | -2.83 | -2.83 |
| Cd300c (CD300C molecule) | 5 | qiagen single siRNA | 0.842 | 0.726 | 0.958 | -2.83 |
| Cd300c (CD300C molecule) | 6 | qiagen single siRNA | -7.74 (active) | -7.74 | – | -2.83 |
| Fads3 (fatty acid desaturase 3) | 1 | ambion single siRNA | 0.156 | 0.51 | -0.198 | -0.179 |
| Fads3 (fatty acid desaturase 3) | 2 | ambion single siRNA | 0.774 | 1.71 | -0.16 | -0.179 |
| Fads3 (fatty acid desaturase 3) | 3 | ambion single siRNA | -1.75 | -2.63 | -0.873 | -0.179 |
| Fads3 (fatty acid desaturase 3) | 4 | qiagen single siRNA | 0.909 | 0.371 | 1.45 | -0.569 |
| Fads3 (fatty acid desaturase 3) | 5 | qiagen single siRNA | -0.415 | 0.679 | -1.51 | -0.569 |
| Fads3 (fatty acid desaturase 3) | 6 | qiagen single siRNA | -2.7 (active) | -2.6 | -2.81 | -0.569 |
